3 molecules from patent US20140079713A1 can be followed below.

Chains of the proteins cited; added tags and fusions are not shown. Lines headed by an entry give the natural chain unless they say otherwise; changes in a name come on top. A line that says so, or that is headed by a name, gives the form on record, which may keep a tag or linker. Residues count along the entry.
ShhN-AP WT (Q62226, residues 25-198): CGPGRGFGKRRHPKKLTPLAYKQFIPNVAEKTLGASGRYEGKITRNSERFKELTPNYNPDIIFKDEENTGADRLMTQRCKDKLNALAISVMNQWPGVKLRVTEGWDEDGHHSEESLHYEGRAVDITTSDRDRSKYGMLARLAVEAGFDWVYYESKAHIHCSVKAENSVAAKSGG
ShhN-AP E90A (Q62226, form named): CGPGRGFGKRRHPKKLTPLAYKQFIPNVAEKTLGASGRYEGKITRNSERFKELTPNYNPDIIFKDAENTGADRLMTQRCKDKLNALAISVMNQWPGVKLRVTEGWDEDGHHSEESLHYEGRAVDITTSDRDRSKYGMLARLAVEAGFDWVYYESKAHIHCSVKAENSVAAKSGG

No constants are given. Whether binding was seen depends on the method and setting. For some assays here: Binding seen in cells or lysates may run through a third protein. Some entries that bind do so weakly or less than the wild type. For some assays here: Tags and fused reporters may be left off the sequences shown.

The target of assay [1] is T1, PTCH1-GFP (mouse) (UniProt Q61115).
T1 sequence (looked up): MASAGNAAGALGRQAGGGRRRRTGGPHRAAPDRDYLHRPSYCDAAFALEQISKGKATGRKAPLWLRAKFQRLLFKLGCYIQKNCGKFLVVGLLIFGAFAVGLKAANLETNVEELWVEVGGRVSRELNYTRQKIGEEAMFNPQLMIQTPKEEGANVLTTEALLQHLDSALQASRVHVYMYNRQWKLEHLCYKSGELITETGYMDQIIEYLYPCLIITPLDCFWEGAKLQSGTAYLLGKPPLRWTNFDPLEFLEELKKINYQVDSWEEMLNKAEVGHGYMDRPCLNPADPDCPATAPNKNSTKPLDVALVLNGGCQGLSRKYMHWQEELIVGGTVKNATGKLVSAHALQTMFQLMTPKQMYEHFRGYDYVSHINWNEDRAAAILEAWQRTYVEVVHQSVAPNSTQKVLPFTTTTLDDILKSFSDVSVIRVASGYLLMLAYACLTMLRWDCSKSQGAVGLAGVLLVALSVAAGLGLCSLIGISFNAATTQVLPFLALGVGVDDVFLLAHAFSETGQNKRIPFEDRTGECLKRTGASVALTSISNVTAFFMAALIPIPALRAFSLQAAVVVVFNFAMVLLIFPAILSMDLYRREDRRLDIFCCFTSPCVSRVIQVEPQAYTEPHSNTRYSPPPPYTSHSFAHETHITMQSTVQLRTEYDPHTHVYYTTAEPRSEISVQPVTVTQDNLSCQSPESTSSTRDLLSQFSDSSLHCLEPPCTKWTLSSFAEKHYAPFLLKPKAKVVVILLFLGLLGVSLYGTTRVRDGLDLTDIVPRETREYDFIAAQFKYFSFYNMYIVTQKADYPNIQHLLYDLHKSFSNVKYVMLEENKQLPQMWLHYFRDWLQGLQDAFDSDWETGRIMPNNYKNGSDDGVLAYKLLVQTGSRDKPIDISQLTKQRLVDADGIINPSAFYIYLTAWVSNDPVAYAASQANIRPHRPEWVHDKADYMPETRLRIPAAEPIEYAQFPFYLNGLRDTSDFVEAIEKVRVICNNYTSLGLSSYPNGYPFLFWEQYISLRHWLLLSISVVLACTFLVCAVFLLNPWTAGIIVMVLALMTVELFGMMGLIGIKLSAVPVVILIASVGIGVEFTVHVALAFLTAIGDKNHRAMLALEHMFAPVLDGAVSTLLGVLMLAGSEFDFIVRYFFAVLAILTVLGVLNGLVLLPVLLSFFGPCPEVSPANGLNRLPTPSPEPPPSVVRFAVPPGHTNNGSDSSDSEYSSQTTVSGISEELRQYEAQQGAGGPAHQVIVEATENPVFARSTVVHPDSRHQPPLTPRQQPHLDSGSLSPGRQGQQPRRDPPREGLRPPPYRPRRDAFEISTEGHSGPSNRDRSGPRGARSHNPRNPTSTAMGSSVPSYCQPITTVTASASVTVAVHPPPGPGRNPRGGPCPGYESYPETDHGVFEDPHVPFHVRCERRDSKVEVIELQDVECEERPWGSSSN
The experiment in a line: ShhN-AP binding to cells expressing the receptor.

The target in assay [2] is T2, CDON (pEGFP-mCdon) (mouse) (UniProt Q32MD9).
T2 sequence (looked up): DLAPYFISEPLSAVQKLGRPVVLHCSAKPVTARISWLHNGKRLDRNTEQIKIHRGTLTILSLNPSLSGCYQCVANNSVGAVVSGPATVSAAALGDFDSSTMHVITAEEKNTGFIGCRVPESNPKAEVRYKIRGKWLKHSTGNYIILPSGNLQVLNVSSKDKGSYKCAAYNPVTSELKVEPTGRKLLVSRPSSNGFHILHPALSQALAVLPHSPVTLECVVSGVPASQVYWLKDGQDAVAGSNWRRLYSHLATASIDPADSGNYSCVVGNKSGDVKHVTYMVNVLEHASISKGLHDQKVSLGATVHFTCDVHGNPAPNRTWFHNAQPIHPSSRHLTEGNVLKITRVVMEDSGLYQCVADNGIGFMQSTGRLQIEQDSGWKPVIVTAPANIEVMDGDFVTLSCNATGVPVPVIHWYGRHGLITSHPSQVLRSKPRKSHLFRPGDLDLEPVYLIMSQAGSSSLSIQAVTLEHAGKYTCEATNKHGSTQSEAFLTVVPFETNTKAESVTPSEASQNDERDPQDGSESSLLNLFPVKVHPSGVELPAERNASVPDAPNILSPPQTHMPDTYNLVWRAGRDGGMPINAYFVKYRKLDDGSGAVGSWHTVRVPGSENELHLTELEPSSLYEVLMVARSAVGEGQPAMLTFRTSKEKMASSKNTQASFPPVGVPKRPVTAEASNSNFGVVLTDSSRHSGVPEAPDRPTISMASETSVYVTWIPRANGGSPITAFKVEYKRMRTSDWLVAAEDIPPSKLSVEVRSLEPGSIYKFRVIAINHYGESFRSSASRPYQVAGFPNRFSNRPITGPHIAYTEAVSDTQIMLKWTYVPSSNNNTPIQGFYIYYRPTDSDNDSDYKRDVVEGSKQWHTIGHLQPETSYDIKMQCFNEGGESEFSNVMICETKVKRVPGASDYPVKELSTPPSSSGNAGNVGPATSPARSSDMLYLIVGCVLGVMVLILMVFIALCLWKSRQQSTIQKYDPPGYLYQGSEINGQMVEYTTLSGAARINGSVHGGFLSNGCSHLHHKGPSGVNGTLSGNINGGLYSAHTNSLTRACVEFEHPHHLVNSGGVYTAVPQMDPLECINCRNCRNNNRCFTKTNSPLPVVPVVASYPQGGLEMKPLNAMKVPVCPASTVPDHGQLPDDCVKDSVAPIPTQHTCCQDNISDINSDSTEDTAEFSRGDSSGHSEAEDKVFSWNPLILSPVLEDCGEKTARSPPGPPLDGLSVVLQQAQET
Nature of the assay: summary table of the Shh-receptor binding assays with AP-tagged ShhN.

In assay [3] the target is T3, GAS1 (mouse) (UniProt Q01721).
T3 sequence (looked up): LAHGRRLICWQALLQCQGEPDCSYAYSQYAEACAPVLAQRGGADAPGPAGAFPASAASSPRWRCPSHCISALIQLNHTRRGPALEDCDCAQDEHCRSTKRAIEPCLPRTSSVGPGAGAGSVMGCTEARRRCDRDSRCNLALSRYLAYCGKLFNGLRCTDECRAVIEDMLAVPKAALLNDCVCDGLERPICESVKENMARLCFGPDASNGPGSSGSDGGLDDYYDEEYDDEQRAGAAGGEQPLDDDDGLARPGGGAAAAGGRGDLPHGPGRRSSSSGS
Described as above.

Assay [4] deals with T4, BOC-GFP (mouse) (UniProt Q6AZB0).
T4 sequence (looked up): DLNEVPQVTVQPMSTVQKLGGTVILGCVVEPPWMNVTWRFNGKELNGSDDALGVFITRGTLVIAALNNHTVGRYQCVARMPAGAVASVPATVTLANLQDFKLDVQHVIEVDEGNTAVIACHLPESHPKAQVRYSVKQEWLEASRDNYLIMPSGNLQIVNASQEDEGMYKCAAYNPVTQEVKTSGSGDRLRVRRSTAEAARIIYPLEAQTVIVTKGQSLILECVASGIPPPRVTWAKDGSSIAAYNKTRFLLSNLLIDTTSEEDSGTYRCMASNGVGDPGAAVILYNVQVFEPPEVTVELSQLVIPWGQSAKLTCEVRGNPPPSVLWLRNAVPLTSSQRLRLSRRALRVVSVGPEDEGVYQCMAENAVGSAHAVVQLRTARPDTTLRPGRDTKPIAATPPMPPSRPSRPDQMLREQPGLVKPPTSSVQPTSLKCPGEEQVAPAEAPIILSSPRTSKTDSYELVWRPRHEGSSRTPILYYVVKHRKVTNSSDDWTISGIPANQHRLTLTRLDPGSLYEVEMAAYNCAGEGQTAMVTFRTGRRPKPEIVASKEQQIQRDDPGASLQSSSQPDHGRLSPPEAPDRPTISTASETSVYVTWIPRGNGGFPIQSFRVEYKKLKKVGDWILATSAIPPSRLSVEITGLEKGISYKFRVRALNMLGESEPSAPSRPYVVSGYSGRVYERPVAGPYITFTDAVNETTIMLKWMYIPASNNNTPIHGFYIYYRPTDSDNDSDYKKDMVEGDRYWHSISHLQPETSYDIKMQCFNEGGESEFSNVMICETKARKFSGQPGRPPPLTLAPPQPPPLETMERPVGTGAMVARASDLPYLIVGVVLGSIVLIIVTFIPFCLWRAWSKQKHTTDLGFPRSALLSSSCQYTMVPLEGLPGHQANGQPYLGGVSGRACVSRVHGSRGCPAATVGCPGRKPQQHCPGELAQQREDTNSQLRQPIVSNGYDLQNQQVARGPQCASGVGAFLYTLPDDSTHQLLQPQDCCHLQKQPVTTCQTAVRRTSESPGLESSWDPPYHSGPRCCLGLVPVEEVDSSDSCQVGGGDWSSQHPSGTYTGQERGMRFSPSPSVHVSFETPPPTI
The assay is described as above.

Assay [5] deals with T5, PTCH1-GFP (mouse), Q61115.
T5 chain: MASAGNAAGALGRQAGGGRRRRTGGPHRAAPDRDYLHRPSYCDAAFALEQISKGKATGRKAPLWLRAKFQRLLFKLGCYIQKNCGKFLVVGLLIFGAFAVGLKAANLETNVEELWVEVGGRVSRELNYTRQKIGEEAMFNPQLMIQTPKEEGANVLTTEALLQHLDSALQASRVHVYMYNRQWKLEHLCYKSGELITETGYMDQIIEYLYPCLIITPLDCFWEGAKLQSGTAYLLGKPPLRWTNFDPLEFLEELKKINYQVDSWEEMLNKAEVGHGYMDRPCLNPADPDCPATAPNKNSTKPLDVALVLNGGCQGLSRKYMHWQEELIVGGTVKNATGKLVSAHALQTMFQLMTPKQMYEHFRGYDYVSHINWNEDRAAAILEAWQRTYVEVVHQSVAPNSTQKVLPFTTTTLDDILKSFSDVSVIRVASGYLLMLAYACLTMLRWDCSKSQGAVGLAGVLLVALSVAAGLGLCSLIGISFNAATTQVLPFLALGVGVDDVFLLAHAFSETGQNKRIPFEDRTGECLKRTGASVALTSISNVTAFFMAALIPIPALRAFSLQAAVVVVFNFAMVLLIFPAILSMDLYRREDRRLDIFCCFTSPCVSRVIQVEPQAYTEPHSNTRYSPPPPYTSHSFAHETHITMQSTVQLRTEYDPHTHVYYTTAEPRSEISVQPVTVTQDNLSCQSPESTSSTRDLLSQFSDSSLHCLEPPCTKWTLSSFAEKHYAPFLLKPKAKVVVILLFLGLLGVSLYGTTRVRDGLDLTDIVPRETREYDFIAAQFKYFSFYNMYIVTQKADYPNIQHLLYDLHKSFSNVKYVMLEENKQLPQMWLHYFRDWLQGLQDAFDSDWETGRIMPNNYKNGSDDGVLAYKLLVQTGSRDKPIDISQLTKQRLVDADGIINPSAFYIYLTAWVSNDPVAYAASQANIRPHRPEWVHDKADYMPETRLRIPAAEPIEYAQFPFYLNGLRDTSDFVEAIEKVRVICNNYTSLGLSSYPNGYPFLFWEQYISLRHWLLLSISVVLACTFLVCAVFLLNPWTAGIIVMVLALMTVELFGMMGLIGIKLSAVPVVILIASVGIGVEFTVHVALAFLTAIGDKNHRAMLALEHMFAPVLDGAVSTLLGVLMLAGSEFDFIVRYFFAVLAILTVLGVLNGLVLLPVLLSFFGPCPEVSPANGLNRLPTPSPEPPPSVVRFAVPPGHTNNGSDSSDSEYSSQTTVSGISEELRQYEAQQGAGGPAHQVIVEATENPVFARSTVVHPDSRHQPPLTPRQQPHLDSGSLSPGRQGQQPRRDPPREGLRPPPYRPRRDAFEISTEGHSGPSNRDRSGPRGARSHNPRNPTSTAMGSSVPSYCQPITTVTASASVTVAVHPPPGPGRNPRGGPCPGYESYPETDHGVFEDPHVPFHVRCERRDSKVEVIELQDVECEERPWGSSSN
The experiment in a line: co-immunoprecipitation (anti-GAS1 IP, anti-GFP blot), COS7 lysates. To be noted: remark: other sources report otherwise.

The target in assay [6] is T5, PTCH1-GFP (mouse), Q61115. The experiment in a line: co-immunoprecipitation (anti-GFP IP), COS7 lysates. Particulars: remark: other sources report otherwise.
Assay [7] has as its target T5, PTCH1-GFP (mouse), Q61115. The experiment in a line: co-immunoprecipitation (anti-GFP IP), COS7 lysates, FIG. 10. Particulars: remark: other sources report otherwise.
Assay [8] has as its target T5, PTCH1-GFP (mouse), Q61115. The experiment in a line: co-immunoprecipitation (anti-GFP IP), COS7 lysates, FIG. 5A. Particulars: remark: other sources report otherwise.

For “ShhN-AP E90A (from UniProt Q62226 25-198) (ligand)”, in assay [1], the binding result was “binds”.

On to “ShhN-AP WT (from UniProt Q62226 25-198) (ligand)”, for which the binding result in assay [2], in assay [3] and in assay [4] was “binds” throughout.

B1: GAS1, Q01721 39-315 (receptor, mouse, UniProt Q01721 39-315, looked up)
chain: LAHGRRLICWQALLQCQGEPDCSYAYSQYAEACAPVLAQRGGADAPGPAGAFPASAASSPRWRCPSHCISALIQLNHTRRGPALEDCDCAQDEHCRSTKRAIEPCLPRTSSVGPGAGAGSVMGCTEARRRCDRDSRCNLALSRYLAYCGKLFNGLRCTDECRAVIEDMLAVPKAALLNDCVCDGLERPICESVKENMARLCFGPDASNGPGSSGSDGGLDDYYDEEYDDEQRAGAAGGEQPLDDDDGLARPGGGAAAAGGRGDLPHGPGRRSSSSGS
On to B1, for which the binding result in assay [5], in assay [6], in assay [7] and in assay [8] was “binds” each time.
